Results deposited as PubChem BioAssay AID1224829 (NIAID, 2016)

- Purpose: 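Secondary check of hits that alter LPS-induced p65 translocation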 (follow-up of hits)
- Cells: mouse RAW264.7 G9 macrophage reporter cells
- Reagents: single siRNA against mouse genes, 100 nM
- Duration: 2 days of siRNA knock-down, then 40 min of LPS before fixing
- Challenge: LPS (Salmonella minnesota R595) at 10 ng/ml
- Detection: 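High-content images after 40 min LPS exposure; GFP-p65 nucleus to surrounding ring signal ratio, normalised to plate median and non-targeting control wells, expressed as z-score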
- Scale: p65 translocation z-score: higher = more nuclear NF-kappaB p65 after LPS
- Active means: 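Active means the replicate-mean z-score lies beyond plus or minus 2, in either direction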
- Calls: active = changed p65 translocation (either direction); inactive = no clear change
Here is an unselected part of about 3,800 reagents tested. 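Calls cover raised and lowered translocation; gene median uses one vendor's three siRNAs; qiagen siRNAs acted more weakly than ambion siRNAs.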 The numbers tell different reagents against one gene apart. Not all columns of the deposit are shown.

no.	gene	siRNA no.	siRNA vendor or control pool	p65 translocation z-score, replicate mean	p65 translocation z-score, replicate 1	activity call
1	Prdx2 (peroxiredoxin 2)	1	ambion single siRNA	2.33	3.7	active
2	Prdx2 (peroxiredoxin 2)	2	ambion single siRNA	1.63	2.37	inactive
3	Prdx2 (peroxiredoxin 2)	3	ambion single siRNA	-3.47	-1.29	active
4	Prdx2 (peroxiredoxin 2)	4	qiagen single siRNA	2.06	2.46	active
5	Prdx2 (peroxiredoxin 2)	5	qiagen single siRNA	-0.502	-0.502	inactive
6	Prdx2 (peroxiredoxin 2)	6	qiagen single siRNA	-5.22	-5.22	active
7	Hnrnph1 (heterogeneous nuclear ribonucleoprotein H1)	1	ambion single siRNA	-2.06	-2.24	active
8	Hnrnph1 (heterogeneous nuclear ribonucleoprotein H1)	2	ambion single siRNA	-2.33	-1.62	active
9	Hnrnph1 (heterogeneous nuclear ribonucleoprotein H1)	3	ambion single siRNA	-1.19	-2.47	inactive
10	Hnrnph1 (heterogeneous nuclear ribonucleoprotein H1)	4	qiagen single siRNA	3.28	1.27	active
11	Hnrnph1 (heterogeneous nuclear ribonucleoprotein H1)	5	qiagen single siRNA	-0.769	-0.769	inactive
12	Hnrnph1 (heterogeneous nuclear ribonucleoprotein H1)	6	qiagen single siRNA	-0.303	-0.14	inactive
13	Akr1b7 (aldo-keto reductase family 1, member B7)	1	ambion single siRNA	0.688	0.988	inactive
14	Akr1b7 (aldo-keto reductase family 1, member B7)	2	ambion single siRNA	0.319	1.09	inactive
15	Akr1b7 (aldo-keto reductase family 1, member B7)	3	ambion single siRNA	-2.42	-2.68	active
16	Akr1b7 (aldo-keto reductase family 1, member B7)	4	qiagen single siRNA	-0.0201	-0.149	inactive
17	Akr1b7 (aldo-keto reductase family 1, member B7)	5	qiagen single siRNA	0.0621	-0.371	inactive
18	Akr1b7 (aldo-keto reductase family 1, member B7)	6	qiagen single siRNA	-2.42	-1.55	active
19	Fgf2 (fibroblast growth factor 2)	1	ambion single siRNA	-2.13	-3.72	active
20	Fgf2 (fibroblast growth factor 2)	2	ambion single siRNA	-2.45	-1.42	active
21	Fgf2 (fibroblast growth factor 2)	3	ambion single siRNA	-5.15	-6.48	active
22	Fgf2 (fibroblast growth factor 2)	4	qiagen single siRNA	1.74	2.11	inactive
23	Fgf2 (fibroblast growth factor 2)	5	qiagen single siRNA	1.54	0.558	inactive
24	Fgf2 (fibroblast growth factor 2)	6	qiagen single siRNA	-1.47	-2.39	inactive
